# Reference: the supplement of paper PMC9135407
# Values joined by “and” are separate entries in the source; they are usually repeats but may differ in a detail not shown here. Equal entries are not always repeated. Structures can show the parent of a compound that is named as a salt. ± gives the standard deviation of the averaged measurements. The list shows a part of the results. Baselines shift from plate to plate; read single values as rough.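 Culture-activated primary human stellate myofibroblasts, where regained lipid droplets signal inactivation. Value: share of Hoechst-counted cells above a per-plate Bodipy cutoff, in duplicate wells, with DMSO negative and nortriptyline positive controls on each plate. Hits: a control-normalized score above the plate's top-tenth-percentile nortriptyline wells, or one of a plate's three best wells. Final well concentrations are not given.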
# Tested on: primary human hepatic stellate cells (donor 1)
# Experiment: percent Bodipy-positive cells; higher = more lipid droplet accumulation
# Details: 48 h
# [1] = library stock concentration: 1 mM
# [2] = library stock concentration: 3.33 mM
# [3] = library stock concentration: 10 mM
smiles,measurement,setting,value
CCCCC[C@H](O)/C=C/[C@H]1CC[C@@H](O)[C@@H]1C/C=C\CCCC(=O)O [11-deoxy Prostaglandin F2.beta.],percent Bodipy-positive cells,[1],21.8 ± 5.3%
CCN(CCCc1ccccc1)CCCc1ccccc1 [Alverine citrate salt],percent Bodipy-positive cells,,60.6 ± 1.3%
CCN(CCCc1ccccc1)CCCc1ccccc1 [Alverine Citrate],percent Bodipy-positive cells,[2],29.2 ± 3.2%
same,percent Bodipy-positive cells,[3],62.9 ± 5.5%
CCN(CCCc1ccccc1)CCCc1ccccc1 [Alverine citrate],percent Bodipy-positive cells,[3],45.6 ± 6.4%
"Cc1c(C)c2c(c(C)c1O)CC[C@@](C)(CCC[C@H](C)CCC[C@H](C)CCCC(C)C)O2 (racemic) [Tocopherol (R,S)]",percent Bodipy-positive cells,,26.6 ± 14%
CCCCC(CC)COC(=O)c1ccccc1O (centres undefined) [Octisalate],percent Bodipy-positive cells,library stock concentration: 8 mM,2.22 ± 0.26%
CC(CCc1ccc(O)cc1)NCC(O)c1ccc(O)cc1 (centres undefined) [Ractopamine],percent Bodipy-positive cells,library stock concentration: 6.6 mM,8.61 ± 3%
CC(CCc1ccc(O)cc1)NCC(O)c1ccc(O)cc1 (centres undefined),percent Bodipy-positive cells,[3],21.6 ± 4%
CC(=O)[C@H]1CC[C@H]2[C@@H]3CC=C4C[C@@H](OC(=O)CCC(=O)O)CC[C@]4(C)[C@H]3CC[C@]12C,percent Bodipy-positive cells,[3],32.1 ± 2%
CCN(CC)C(=O)CCC/C=C\C[C@@H]1[C@@H](/C=C/[C@@H](O)CCc2ccccc2)[C@H](O)C[C@@H]1O [17-phenyl trinor Prostaglandin F2.alpha. diethyl amide],percent Bodipy-positive cells,[1],16.8 ± 2.6%
CC[C@]1(O)C[C@@H]2CN(CCc3c([nH]c4ccccc34)[C@@](C(=O)OC)(c3cc4c(cc3OC)N(C)[C@H]3[C@@](O)(C(=O)OC)[C@H](OC(C)=O)[C@]5(CC)C=CCN6CC[C@]43[C@@H]65)C2)C1 [Vinblastine],percent Bodipy-positive cells,[2],69.7 ± 4.6%
O=C(O)c1ccc(N2C(=O)C(=Cc3ccc(-c4ccc([N+](=O)[O-])cc4)o3)C=C2c2ccccc2)cc1,percent Bodipy-positive cells,[2],3.89 ± 0.56%
same,percent Bodipy-positive cells,[3],10.9 ± 5.3%
CC(C)(C)C(O)/C=C/c1ccc2c(c1)OCO2 (centres undefined) [Stiripentol],percent Bodipy-positive cells,[3],9.62 ± 3.1%
Cc1cc(CS(=O)(=O)c2ccccc2)cc(OCc2ccc(CN3CCC[C@@H]3CO)cc2)c1,percent Bodipy-positive cells,[2],64.2 ± 14%
CC(/C=C/C(=O)NO)=C\[C@@H](C)C(=O)c1ccc(N(C)C)cc1 [Trichostatin A],percent Bodipy-positive cells,[1],71.2 ± 6.7%
Nc1cc(N2CCCCC2)nc(N)[n+]1OS(=O)(=O)[O-] [Minoxidil sulfate],percent Bodipy-positive cells,library stock concentration: 17.3 mM,12.3 ± 1.3%
Clc1ccc(COC(Cn2ccnc2)c2ccc(Cl)cc2Cl)cc1 (centres undefined) [Econazole Nitrate],percent Bodipy-positive cells,[3],95.6 ± 3.2%
Clc1ccc(COC(Cn2ccnc2)c2ccc(Cl)cc2Cl)cc1 (centres undefined) [Econazole nitrate],percent Bodipy-positive cells,,52.8 ± 2%
same,percent Bodipy-positive cells,[2],5.69 ± 2%
same,percent Bodipy-positive cells,library stock concentration: 4.5 mM,63.6 ± 15%
same,percent Bodipy-positive cells,[3],42.9% and 28.6%
Cc1cc(N2CCOCC2)cc2[nH]c(-c3c(NCC(O)c4cccc(Cl)c4)cc[nH]c3=O)nc12 (centres undefined),percent Bodipy-positive cells,[2],6.65 ± 0.93%
same,percent Bodipy-positive cells,[3],66.6 ± 12%
C[C@H](CCC(=O)NCC(=O)O)[C@H]1CC[C@H]2[C@@H]3[C@H](O)C[C@@H]4C[C@H](O)CC[C@]4(C)[C@H]3C[C@H](O)[C@]12C [Glycocholic acid],percent Bodipy-positive cells,,38.7 ± 15%
CCCCCCCC/C=C\CCCCCCCCCCCC(=O)O [13(Z)-Docosenoic Acid],percent Bodipy-positive cells,[1],12.1 ± 2.4%
CN(C)CCOc1ccc(-c2nc(-c3ccncc3)c(-c3ccc4c(c3)CCC4=NO)[nH]2)cc1,percent Bodipy-positive cells,[2],86 ± 12%
CO/N=C1\CN(c2nc3c(cc2F)c(=O)c(C(=O)O)cn3C2CC2)CC1CN (centres undefined) [Gemifloxacin mesylate],percent Bodipy-positive cells,[3],34.4 ± 3.2%
CCNc1nc2c(ncn2[C@H]2C[C@H](O)[C@@H](CO)O2)c(=O)[nH]1 [N2-Ethyl-2'-deoxyguanosine],percent Bodipy-positive cells,[3],12.75 ± 0.088%
Clc1ccccc1C(c1ccccc1)(c1ccccc1)n1ccnc1 [Clotrimazole],percent Bodipy-positive cells,,25.1 ± 3.9%
same,percent Bodipy-positive cells,[2],7.68 ± 4.5%
same,percent Bodipy-positive cells,library stock concentration: 5.8 mM,3.1 ± 3%
NC(=O)NO [Hydroxyurea],percent Bodipy-positive cells,[2],6.36 ± 0.44%
same,percent Bodipy-positive cells,[3],21.8% and 18.4% and 40.6%
same,percent Bodipy-positive cells,library stock concentration: 26.3 mM,2.11 ± 1.2%
"CCN(CC)C(=O)c1ccc(Nc2nc(OCC3CCCCC3)c3[nH]cnc3n2)cc1 [Cdk2 Inhibitor IV, NU6140]",percent Bodipy-positive cells,[2],8.79 ± 0.76%
Cc1cc(C(=O)Nc2cc(Nc3ccc4c(/C=C/c5ccccn5)n[nH]c4c3)ccc2F)n(C)n1,percent Bodipy-positive cells,[3],89.9 ± 3%
CN1CCN(C2=Nc3cc(Cl)ccc3Nc3ccccc32)CC1,percent Bodipy-positive cells,[3],88.5 ± 2.5%
CN1CCC[C@H]1c1cccnc1,percent Bodipy-positive cells,[3],29.1 ± 2.8%
CN1CCC[C@H]1c1cccnc1 [Nicotine ditartrate],percent Bodipy-positive cells,[3],46 ± 2.9%
O=S(=O)(O)CCSSCCS(=O)(=O)O [Dimesna],percent Bodipy-positive cells,[2],11.5 ± 6.8%
same,percent Bodipy-positive cells,[3],17.8 ± 1.1%
O=S(=O)(O)CCSSCCS(=O)(=O)O,percent Bodipy-positive cells,[3],24.9 ± 2.1%
CCCC(C(=O)OCCN(CC)CC)(c1ccccc1)c1ccccc1 [Proadifen hydrochloride],percent Bodipy-positive cells,,44.5 ± 6%
same,percent Bodipy-positive cells,library stock concentration: 5.1 mM,75 ± 4%
same,percent Bodipy-positive cells,[3],76.9 ± 1.6%
CCCC(C(=O)OCCN(CC)CC)(c1ccccc1)c1ccccc1 [SKF-525A hydrochloride],percent Bodipy-positive cells,[3],97.1 ± 1.9%
CO[C@H]1C(=O)[C@]2(C)[C@@H](OC)C[C@H]3OC[C@@]3(OC(C)=O)[C@H]2[C@H](OC(=O)c2ccccc2)[C@]2(O)C[C@H](OC(=O)[C@H](O)[C@@H](NC(=O)OC(C)(C)C)c3ccccc3)C(C)=C1C2(C)C [Cabazitaxel],percent Bodipy-positive cells,[2],7.78 ± 2.7%
same,percent Bodipy-positive cells,[3],15 ± 2.4%
CCCCC/C=C\C\C=C/C=C/C=C/CC(=O)CCCC(=O)O [5-Ketoeicosatetraenoic acid],percent Bodipy-positive cells,library stock concentration: 100 uM,9.07 ± 4.7%
C=CC[N@@+]12CC[C@@]34c5ccccc5N5/C=C6/[C@H]7C[C@H]8[C@@]9(CC[N@@+]8(CC=C)C/C7=C/CO)c7ccccc7N(/C=C(/[C@@H](C[C@@H]31)/C(=C\CO)C2)[C@H]54)[C@@H]69 [Alcuronium chloride],percent Bodipy-positive cells,,8.45 ± 0.56%
COc1cc(CC(=O)O)ccc1O [4-Hydroxy-3-methoxyphenylacetic acid],percent Bodipy-positive cells,[3],42.9 ± 8.6%
COc1c(OC)c2occc2c2oc(=O)ccc12 [Pimpinellin],percent Bodipy-positive cells,[3],27.8 ± 7.5%
Cc1cc(CC(C)CC(C)(C)C)n(O)c(=O)c1 (centres undefined),percent Bodipy-positive cells,[3],75.6 ± 11%
Cn1c(=O)c2c(ncn2CC(O)CO)n(C)c1=O (centres undefined) [Dyphylline],percent Bodipy-positive cells,[2],7.8 ± 1.7%
same,percent Bodipy-positive cells,library stock concentration: 7.9 mM,3.72 ± 0.22%
same,percent Bodipy-positive cells,[3],12.1% and 12.5%
Cn1c(=O)c2c(ncn2CC(O)CO)n(C)c1=O (centres undefined) [Diprophylline],percent Bodipy-positive cells,,23.9 ± 1.5%
CCCc1nc(C(C)(C)O)c(C(=O)OCc2oc(=O)oc2C)n1Cc1ccc(-c2ccccc2-c2nnn[nH]2)cc1,percent Bodipy-positive cells,[3],9.71 ± 0.17%
CCCc1nc(C(C)(C)O)c(C(=O)OCc2oc(=O)oc2C)n1Cc1ccc(-c2ccccc2-c2nnn[nH]2)cc1 [Olmesartan medoxomil],percent Bodipy-positive cells,library stock concentration: 3.6 mM,7.08 ± 2.5%
same,percent Bodipy-positive cells,[3],56.9 ± 7.3%
CCCc1nc(C(C)(C)O)c(C(=O)OCc2oc(=O)oc2C)n1Cc1ccc(-c2ccccc2-c2nnn[nH]2)cc1 [Olmesartan Medoxomil],percent Bodipy-positive cells,[2],9.83 ± 2.4%
same,percent Bodipy-positive cells,[3],13.7 ± 4.1%

# Quoted from above for reference:
smiles,measurement,setting,value
CCNc1nc2c(ncn2[C@H]2C[C@H](O)[C@@H](CO)O2)c(=O)[nH]1 [N2-Ethyl-2'-deoxyguanosine],percent Bodipy-positive cells,[3],12.75 ± 0.088%
Clc1ccccc1C(c1ccccc1)(c1ccccc1)n1ccnc1 [Clotrimazole],percent Bodipy-positive cells,,25.1 ± 3.9%

# Retrieved one by one from above, three records:
smiles,measurement,setting,value
C[C@H](CCC(=O)NCC(=O)O)[C@H]1CC[C@H]2[C@@H]3[C@H](O)C[C@@H]4C[C@H](O)CC[C@]4(C)[C@H]3C[C@H](O)[C@]12C [Glycocholic acid],percent Bodipy-positive cells,,38.7 ± 15%
Cc1cc(N2CCOCC2)cc2[nH]c(-c3c(NCC(O)c4cccc(Cl)c4)cc[nH]c3=O)nc12 (centres undefined),percent Bodipy-positive cells,[3],66.6 ± 12%
CN1CCC[C@H]1c1cccnc1,percent Bodipy-positive cells,[3],29.1 ± 2.8%
